Assay: general procedure: solution-phase peptide synthesis; HATU/DIEA
Details: coupling step

Substance	step yield
(8S,11S,14S)-18- hydroxy-11-methyl- 14-[methyl-[(2S)-2- [[2-(4-isopropoxy- phenyl)-4,6-dimethyl- pyrimidine-5- carbonyl]amino]-3- (sulfamoylamino)- propanoyl]amino]- 10,13-dioxo-3,17- bis[(2R)-3-amino-2- hydroxy-propoxy]- 9,12-diazatricyclo- [13.3.1.12,6]icosa- 1(18),2(20),3,5,15(19), 16-hexaene-8- carboxylic acid	97.3%
(8S,11S,14S)-18- hydroxy-11-methyl- 14-[methyl-[(2S)-4- amino-2-[[2-(4-tert- butylphenyl)-4,6- dimethyl-pyrimidine- 5-carbonyl]amino]- butanoyl]amino]- 10,13-dioxo-3,17- bis[(2R)-3-amino-2- hydroxy-propoxyl]- 9,12-diazatricyclo- [13.3.1.12,6]icosa- 1(18),2(20),3,5,15(19), 16-hexaene-8- carboxylic acid	83.8% yield

Same assay, conditions: late stage modification step

Substance	step yield
(8S,11S,14S)-18- hydroxy-11-methyl-14- [methyl-[(2S)-2-[[1-(4- tert-butylphenyl)-6- oxo-pyridazine-4- carbonyl]amino]-3- (sulfamoylamino)- propanoyl]amino]- 10,13-dioxo-3,17- bis[(2R)-3-amino-2- hydroxy-propoxy]- 9,12-diazatricyclo- [13.3.1.12,6]icosa- 1(18),2(20),3,5,15(19), 16-hexaene-8- carboxylic acid	32.9%
(8S,11S,14S)-18- hydroxy-11-methyl- 14-[methyl-[(2S)-2- [[2-(4-isopropoxy- phenyl)-4-methyl- pyrimidine-5- carbonyl]amino]-3- (sulfamoylamino)- propanoyl]amino]- 10,13-dioxo-3,17- bis[(2R)-3-amino-2- hydroxy-propoxy]- 9,12-diazatricyclo- [13.3.1.12,6]icosa- 1(18),2(20),3,5,15(19), 16-hexaene-8- carboxylic acid	63.0%
(8S,11S,14S)-18- hydroxy-11-methyl- 14-[methyl-[(2S)-2- [[2-[4-(3,3-dimethyl- butoxy)phenyl]-4- methyl-pyrimidine- 5-carbonyl]amino]-3- (sulfamoylamino)- propanoyl]amino]- 10,13-dioxo-3,17- bis[(2R)-3-amino-2- hydroxy-propoxy]- 9,12-diazatricyclo- [13.3.1.12,6]icosa- 1(18),2(20),3,5,15(19), 16-hexaene-8- carboxylic acid	48.8%
(8S,11S,14S)-18- hydroxy-11-methyl- 14-[methyl-[(2S)-2- [[3-amino-5-(4-tert- butylphenyl)pyrazine- 2-carbonyl]amino]-3- (sulfamoylamino)- propanoyl]amino]- 10,13-dioxo-3,17- bis[(2R)-3-amino-2- hydroxy-propoxy]- 9,12-diazatricyclo- [13.3.1.12,6]icosa- 1(18),2(20),3,5,15(19), 16-hexaene-8- carboxylic acid	100% yield
(8S,11S,14S)-18- hydroxy-11-methyl- 14-[methyl-[(2S)-4- amino-2-[[1-(4-tert- butylphenyl)-6-oxo- pyridazine-4- carbonyl]amino]- butanoyl]amino]- 10,13-dioxo-3,17- bis[(2R)-3-amino-2- hydroxy-propoxy]- 9,12-diazatricyclo- [13.3.1.12,6]icosa- 1(18),2(20),3,5,15(19), 16-hexaene-8- carboxylic acid	68.7%
(8S,11S,14S)-18- hydroxy-11-methyl- 14-[methyl-[(2S)-4- amino-2-[[2-(4- isopropoxyphenyl)- 4-methyl-pyrimidine- 5-carbonyl]amino]- butanoyl]amino]- 10,13-dioxo-3,17- bis[(2R)-3-amino-2- hydroxy-propoxy]- 9,12-diazatricyclo- [13.3.1.12,6]icosa- 1(18),2(20),3,5,15(19), 16-hexaene-8- carboxylic acid	100% yield
(8S,11S,14S)-18- hydroxy-11-methyl- 14-[methyl-[(2S)-4- amino-2-[[4-amino- 2-[4-(3,3-dimethyl- butoxy)phenyl]-6- methyl-pyrimidine- 5-carbonyl]amino]- butanoyl]amino]- 10,13-dioxo-3,17- bis[(2R)-3-amino-2- hydroxy-propoxy]- 9,12-diazatricyclo- [13.3.1.12,6]icosa- 1(18),2(20),3,5,15(19), 16-hexaene-8- carboxylic acid	99.1%
